{"source": "PubChem BioAssay AID1259290, Sanger Institute – 2017", "purpose": "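Identify kinases needed for colorectal cancer cell survival, with or without anchor drugs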 (primary screen)", "cell system": "human SNUC1 colorectal cancer cells", "reagents": "siRNA pool against human genes", "conditions": "anchor drugs BYL719 1 µM, cetuximab 5 µg/ml or trametinib 10 nM, or DMSO vehicle alone", "read-out": "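Viability averaged over replicates and scaled to non-targeting siRNA, robust z-score with no drug, and synergy scores by drug for BYL719, cetuximab and trametinib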", "scale": "viability z-score, siRNA alone: higher = more viable cells; low values mean essential gene", "hit rule": "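a knock-down without drug scoring a robust z under -3 counts as essential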", "meaning of the calls": "active = essential: knock-down alone cut viability (z below -3); inactive = no clear viability loss with knock-down alone", "note": "The whole screen tested 794 reagents; below is a random part of them. In the full data, 9 (1.1%) got an active call. 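Calls rest on knock-down alone, not drug synergy; synergy above 0.15 was grouped apart and does not affect calls.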 Not all columns of the deposit are shown. Not stated in the record: the amount of reagent, the time to read-out."}
{"Gene": "CAMK2B", "viability z-score, siRNA alone": -0.286, "outcome": "inactive"}
{"Gene": "BUB1", "viability z-score, siRNA alone": 0.93, "outcome": "inactive"}
{"Gene": "MED24", "viability z-score, siRNA alone": -1.54, "outcome": "inactive"}
{"Gene": "MAP3K7", "viability z-score, siRNA alone": 0.405, "outcome": "inactive"}
{"Gene": "ROR2", "viability z-score, siRNA alone": -2.32, "outcome": "inactive"}
{"Gene": "PGK2", "viability z-score, siRNA alone": -1.1, "outcome": "inactive"}
{"Gene": "GK2", "viability z-score, siRNA alone": -1.36, "outcome": "inactive"}
{"Gene": "PDGFRB", "viability z-score, siRNA alone": -0.746, "outcome": "inactive"}
{"Gene": "STK10", "viability z-score, siRNA alone": -0.379, "outcome": "inactive"}
{"Gene": "ABL1", "viability z-score, siRNA alone": -0.222, "outcome": "inactive"}
{"Gene": "STK26", "viability z-score, siRNA alone": 0.936, "outcome": "inactive"}
{"Gene": "CDK5R2", "viability z-score, siRNA alone": 0.936, "outcome": "inactive"}
{"Gene": "PHKG1", "viability z-score, siRNA alone": -1.63, "outcome": "inactive"}
{"Gene": "GATA3", "viability z-score, siRNA alone": 0.936, "outcome": "inactive"}
{"Gene": "INSR", "viability z-score, siRNA alone": 0.139, "outcome": "inactive"}
{"Gene": "ERBB4", "viability z-score, siRNA alone": 0.936, "outcome": "inactive"}
{"Gene": "PIP5K1A", "viability z-score, siRNA alone": -1.65, "outcome": "inactive"}
{"Gene": "RAD21", "viability z-score, siRNA alone": 0.936, "outcome": "inactive"}
{"Gene": "PRKCD", "viability z-score, siRNA alone": 0.109, "outcome": "inactive"}
{"Gene": "PRKD2", "viability z-score, siRNA alone": -3.72, "outcome": "active"}
{"Gene": "NTRK2", "viability z-score, siRNA alone": -0.404, "outcome": "inactive"}
{"Gene": "PEAK1", "viability z-score, siRNA alone": 0.471, "outcome": "inactive"}
{"Gene": "PRKAG1", "viability z-score, siRNA alone": 0.936, "outcome": "inactive"}
{"Gene": "EIF2AK1", "viability z-score, siRNA alone": 0.791, "outcome": "inactive"}
{"Gene": "PSTK", "viability z-score, siRNA alone": 0.925, "outcome": "inactive"}
{"Gene": "NEK5", "viability z-score, siRNA alone": -1.11, "outcome": "inactive"}
{"Gene": "PI4K2B", "viability z-score, siRNA alone": 0.152, "outcome": "inactive"}
{"Gene": "TTBK2", "viability z-score, siRNA alone": 0.936, "outcome": "inactive"}

In a second layout: entries from further up.
Gene,"viability z-score, siRNA alone",outcome
PRKCD,0.109,inactive
PRKD2,-3.72,active
